Consider four substances from PMC6527565.

Amino acid sequences for entries named in this document (tags omitted).
UniProt P42224: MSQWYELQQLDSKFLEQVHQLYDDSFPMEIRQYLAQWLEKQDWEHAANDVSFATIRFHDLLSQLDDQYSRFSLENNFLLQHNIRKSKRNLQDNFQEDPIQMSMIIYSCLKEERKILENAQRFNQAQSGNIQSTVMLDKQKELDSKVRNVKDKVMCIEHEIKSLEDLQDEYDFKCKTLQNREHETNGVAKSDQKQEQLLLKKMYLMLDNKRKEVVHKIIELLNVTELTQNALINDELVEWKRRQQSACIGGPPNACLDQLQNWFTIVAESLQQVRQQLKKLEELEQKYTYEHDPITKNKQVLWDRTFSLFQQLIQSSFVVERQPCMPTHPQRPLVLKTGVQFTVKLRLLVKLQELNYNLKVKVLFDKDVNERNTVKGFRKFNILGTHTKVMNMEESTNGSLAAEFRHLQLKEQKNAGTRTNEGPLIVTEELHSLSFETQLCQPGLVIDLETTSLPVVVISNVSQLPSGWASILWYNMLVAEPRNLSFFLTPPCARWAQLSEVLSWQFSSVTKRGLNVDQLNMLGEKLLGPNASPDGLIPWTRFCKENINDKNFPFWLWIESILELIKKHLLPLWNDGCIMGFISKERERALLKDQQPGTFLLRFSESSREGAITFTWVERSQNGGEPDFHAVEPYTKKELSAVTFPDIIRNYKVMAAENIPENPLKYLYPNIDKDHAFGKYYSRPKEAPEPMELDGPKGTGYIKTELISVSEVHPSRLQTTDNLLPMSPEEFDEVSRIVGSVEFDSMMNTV

Experiment [1] concerns the target T1, GST-PH-LNK, GST protein fused to the PH domain of LNK (UniProt Q9UQQ2).
T1 sequence: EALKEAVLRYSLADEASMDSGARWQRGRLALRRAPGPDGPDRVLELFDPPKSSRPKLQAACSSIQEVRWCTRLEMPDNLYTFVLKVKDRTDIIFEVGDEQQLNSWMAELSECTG
Nature of the experiment: pull-down; recombinant GST fusion of LNK PH or SH2 domain (or GST control) incubated with lysate of HEK293T cells transfected with Flag tag STAT1; only the target purified.

Experiment [2] concerns the target GST-SH2-LNK, GST protein fused to the SH2 domain of LNK (UniProt Q9UQQ2). The description is as above.
Experiment [3] has as its target STAT1 (human (endogenous in melanoma cells; cell line not named)) (UniProt P42224). Nature of the experiment: co-IP; melanoma cells treated with IFN gamma (2000 U/ml) for 30 min; lysates in M-PER; precipitation with LNK antibody (Santa Cruz A-12, sc-393709) or STAT1 antibody (Cell Signaling 9172); western blot. In general terms: Immunoblotting shows a protein as a band on a membrane.

Experiment [4] deals with LNK (SH2B3) (human (endogenous in melanoma cells; cell line not named)) (UniProt Q9UQQ2). Described as above.
In a further experiment the target is GST-STAT1 protein (UniProt P42224). Nature of the experiment: pull-down; recombinant GST-STAT1 from E. coli incubated with lysate of A375 cells expressing V5-LNK; only the target purified.

Results are given in words; binding and its absence hold for the method and conditions named. In cells and extracts the contact can be indirect. Some binding calls cover weakened binding; strength is not graded here. For some assays here: Where a sequence is shown, tags or fusion partners need not be part of it.

With “Flag tag STAT1 (from UniProt P42224 1-750)”, the binding entry in experiment [1] and in experiment [2] was “binds” in each case.

As to LNK (SH2B3) (from UniProt Q9UQQ2 1-575), in experiment [3], the binding entry was “binds”.

As for STAT1 (from UniProt P42224 1-750), the binding entry in experiment [4] is on record as “binds”.

In the case of V5-LNK (from UniProt Q9UQQ2 1-575), the binding entry in the experiment with GST-STAT1 protein is given as “binds”.
